Source: article PMC9681113

T1: GFP-tagged wild-type MAB21L1 (human) (UniProt Q13394)
T1 sequence: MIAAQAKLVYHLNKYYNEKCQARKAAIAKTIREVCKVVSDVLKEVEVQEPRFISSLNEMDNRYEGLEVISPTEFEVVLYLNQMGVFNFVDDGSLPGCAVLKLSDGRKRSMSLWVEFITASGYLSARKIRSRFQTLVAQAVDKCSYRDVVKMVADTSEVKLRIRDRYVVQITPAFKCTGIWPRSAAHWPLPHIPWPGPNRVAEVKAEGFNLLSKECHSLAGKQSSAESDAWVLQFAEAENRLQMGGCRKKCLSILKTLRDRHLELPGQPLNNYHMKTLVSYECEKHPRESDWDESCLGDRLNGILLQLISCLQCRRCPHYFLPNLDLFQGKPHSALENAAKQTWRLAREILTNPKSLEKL

T2: GFP-tagged MAB21L1 Arg51Gln (human) (UniProt Q13394)
T2 sequence: T1 sequence with R51Q

T3: GFP-tagged MAB21L1 Arg51Leu (human) (UniProt Q13394)
T3 sequence: T1 sequence with R51L

B1: SMG5 (protein, UniProt Q9UPR3 1-1016)
chain: MSQGPPTGESSEPEAKVLHTKRLYRAVVEAVHRLDLILCNKTAYQEVFKPENISLRNKLRELCVKLMFLHPVDYGRKAEELLWRKVYYEVIQLIKTNKKHIHSRSTLECAYRTHLVAGIGFYQHLLLYIQSHYQLELQCCIDWTHVTDPLIGCKKPVSASGKEMDWAQMACHRCLVYLGDLSRYQNELAGVDTELLAERFYYQALSVAPQIGMPFNQLGTLAGSKYYNVEAMYCYLRCIQSEVSFEGAYGNLKRLYDKAAKMYHQLKKCETRKLSPGKKRCKDIKRLLVNFMYLQSLLQPKSSSVDSELTSLCQSVLEDFNLCLFYLPSSPNLSLASEDEEEYESGYAFLPDLLIFQMVIICLMCVHSLERAGSKQYSAAIAFTLALFSHLVNHVNIRLQAELEEGENPVPAFQSDGTDEPESKEPVEKEEEPDPEPPPVTPQVGEGRKSRKFSRLSCLRRRRHPPKVGDDSDLSEGFESDSSHDSARASEGSDSGSDKSLEGGGTAFDAETDSEMNSQESRSDLEDMEEEEGTRSPTLEPPRGRSEAPDSLNGPLGPSEASIASNLQAMSTQMFQTKRCFRLAPTFSNLLLQPTTNPHTSASHRPCVNGDVDKPSEPASEEGSESEGSESSGRSCRNERSIQEKLQVLMAEGLLPAVKVFLDWLRTNPDLIIVCAQSSQSLWNRLSVLLNLLPAAGELQESGLALCPEVQDLLEGCELPDLPSSLLLPEDMALRNLPPLRAAHRRFNFDTDRPLLSTLEESVVRICCIRSFGHFIARLQGSILQFNPEVGIFVSIAQSEQESLLQQAQAQFRMAQEEARRNRLMRDMAQLRLQLEVSQLEGSLQQPKAQSAMSPYLVPDTQALCHHLPVIRQLATSGRFIVIIPRTVIDGLDLLKKEHPGARDGIRYLEAEFKKGNRYIRCQKEVGKSFERHKLKRQDADAWTLYKILDSCKQLTLAQGAGEEDPSGMVTIITGLPLDNPSVLSGPMQAALQAAAHASVDIKNVLDFYKQWKEIG
B2: PHKG2 (protein, UniProt P15735 1-406)
chain: MTLDVGPEDELPDWAAAKEFYQKYDPKDVIGRGVSSVVRRCVHRATGHEFAVKIMEVTAERLSPEQLEEVREATRRETHILRQVAGHPHIITLIDSYESSSFMFLVFDLMRKGELFDYLTEKVALSEKETRSIMRSLLEAVSFLHANNIVHRDLKPENILLDDNMQIRLSDFGFSCHLEPGEKLRELCGTPGYLAPEILKCSMDETHPGYGKEVDLWACGVILFTLLAGSPPFWHRRQILMLRMIMEGQYQFSSPEWDDRSSTVKDLISRLLQVDPEARLTAEQALQHPFFERCEGSQPWNLTPRQRFRVAVWTVLAAGRVALSTHRVRPLTKNALLRDPYALRSVRHLIDNCAFRLYGHWVKKGEQQNRAALFQHRPPGPFPIMGPEEEGDSAAITEDEAVLVLG
B3: PFAS (protein, UniProt O15067 1-1338)
chain: MSPVLHFYVRPSGHEGAAPGHTRRKLQGKLPELQGVETELCYNVNWTAEALPSAEETKKLMWLFGCPLLLDDVARESWLLPGSNDLLLEVGPRLNFSTPTSTNIVSVCRATGLGPVDRVETTRRYRLSFAHPPSAEVEAIALATLHDRMTEQHFPHPIQSFSPESMPEPLNGPINILGEGRLALEKANQELGLALDSWDLDFYTKRFQELQRNPSTVEAFDLAQSNSEHSRHWFFKGQLHVDGQKLVHSLFESIMSTQESSNPNNVLKFCDNSSAIQGKEVRFLRPEDPTRPSRFQQQQGLRHVVFTAETHNFPTGVCPFSGATTGTGGRIRDVQCTGRGAHVVAGTAGYCFGNLHIPGYNLPWEDPSFQYPGNFARPLEVAIEASNGASDYGNKFGEPVLAGFARSLGLQLPDGQRREWIKPIMFSGGIGSMEADHISKEAPEPGMEVVKVGGPVYRIGVGGGAASSVQVQGDNTSDLDFGAVQRGDPEMEQKMNRVIRACVEAPKGNPICSLHDQGAGGNGNVLKELSDPAGAIIYTSRFQLGDPTLNALEIWGAEYQESNALLLRSPNRDFLTHVSARERCPACFVGTITGDRRIVLVDDRECPVRRNGQGDAPPTPLPTPVDLELEWVLGKMPRKEFFLQRKPPMLQPLALPPGLSVHQALERVLRLPAVASKRYLTNKVDRSVGGLVAQQQCVGPLQTPLADVAVVALSHEELIGAATALGEQPVKSLLDPKVAARLAVAEALTNLVFALVTDLRDVKCSGNWMWAAKLPGEGAALADACEAMVAVMAALGVAVDGGKDSLSMAARVGTETVRAPGSLVISAYAVCPDITATVTPDLKHPEGRGHLLYVALSPGQHRLGGTALAQCFSQLGEHPPDLDLPENLVRAFSITQGLLKDRLLCSGHDVSDGGLVTCLLEMAFAGNCGLQVDVPVPRVDVLSVLFAEEPGLVLEVQEPDLAQVLKRYRDAGLHCLELGHTGEAGPHAMVRVSVNGAVVLEEPVGELRALWEETSFQLDRLQAEPRCVAEEERGLRERMGPSYCLPPTFPKASVPREPGGPSPRVAILREEGSNGDREMADAFHLAGFEVWDVTMQDLCSGAIGLDTFRGVAFVGGFSYADVLGSAKGWAAAVTFHPRAGAELRRFRKRPDTFSLGVCNGCQLLALLGWVGGDPNEDAAEMGPDSQPARPGLLLRHNLSGRYESRWASVRVGPGPALMLRGMEGAVLPVWSAHGEGYVAFSSPELQAQIEARGLAPLHWADDDGNPTEQYPLNPNGSPGGVAGICSCDGRHLAVMPHPERAVRPWQWAWRPPPFDTLTTSPWLQLFINARNWTLEGSC
B4: CEP55 (protein, UniProt Q53EZ4 1-464)
chain: MSSRSTKDLIKSKWGSKPSNSKSETTLEKLKGEIAHLKTSVDEITSGKGKLTDKERHRLLEKIRVLEAEKEKNAYQLTEKDKEIQRLRDQLKARYSTTTLLEQLEETTREGERREQVLKALSEEKDVLKQQLSAATSRIAELESKTNTLRLSQTVAPNCFNSSINNIHEMEIQLKDALEKNQQWLVYDQQREVYVKGLLAKIFELEKKTETAAHSLPQQTKKPESEGYLQEEKQKCYNDLLASAKKDLEVERQTITQLSFELSEFRRKYEETQKEVHNLNQLLYSQRRADVQHLEDDRHKTEKIQKLREENDIARGKLEEEKKRSEELLSQVQFLYTSLLKQQEEQTRVALLEQQMQACTLDFENEKLDRQHVQHQLHVILKELRKARNQITQLESLKQLHEFAITEPLVTFQGETENREKVAASPKSPTAALNESLVECPKCNIQYPATEHRDLLVHVEYCSK
B5: SALL2 (protein, UniProt Q9Y467 1-1007)
chain: MSRRKQRKPQQLISDCEGPSASENGDASEEDHPQVCAKCCAQFTDPTEFLAHQNACSTDPPVMVIIGGQENPNNSSASSEPRPEGHNNPQVMDTEHSNPPDSGSSVPTDPTWGPERRGEESSGHFLVAATGTAAGGGGGLILASPKLGATPLPPESTPAPPPPPPPPPPPGVGSGHLNIPLILEELRVLQQRQIHQMQMTEQICRQVLLLGSLGQTVGAPASPSELPGTGTASSTKPLLPLFSPIKPVQTSKTLASSSSSSSSSSGAETPKQAFFHLYHPLGSQHPFSAGGVGRSHKPTPAPSPALPGSTDQLIASPHLAFPSTTGLLAAQCLGAARGLEATASPGLLKPKNGSGELSYGEVMGPLEKPGGRHKCRFCAKVFGSDSALQIHLRSHTGERPYKCNVCGNRFTTRGNLKVHFHRHREKYPHVQMNPHPVPEHLDYVITSSGLPYGMSVPPEKAEEEAATPGGGVERKPLVASTTALSATESLTLLSTSAGTATAPGLPAFNKFVLMKAVEPKNKADENTPPGSEGSAISGVAESSTATRMQLSKLVTSLPSWALLTNHFKSTGSFPFPYVLEPLGASPSETSKLQQLVEKIDRQGAVAVTSAASGAPTTSAPAPSSSASSGPNQCVICLRVLSCPRALRLHYGQHGGERPFKCKVCGRAFSTRGNLRAHFVGHKASPAARAQNSCPICQKKFTNAVTLQQHVRMHLGGQIPNGGTALPEGGGAAQENGSEQSTVSGARSFPQQQSQQPSPEEELSEEEEEEDEEEEEDVTDEDSLAGRGSESGGEKAISVRGDSEEASGAEEEVGTVAAAATAGKEMDSNEKTTQQSSLPPPPPPDSLDQPQPMEQGSSGVLGGKEEGGKPERSSSPASALTPEGEATSVTLVEELSLQEAMRKEPGESSSRKACEVCGQAFPSQAALEEHQKTHPKEGPLFTCVFCRQGFLERATLKKHMLLAHHQVQPFAPHGPQNIAALSLVPGCSPSITSTGLSPFPRKDDPTIP

biological target: T1, GFP-tagged wild-type MAB21L1 (human); test: affinity purification with mass spectrometry; GFP pulldown with GFP Tag Immunomagnetic Beads from lysates of HEK-293 Flp-In T-REx cells expressing EGFP, EGFP-MAB21L1 or mutant EGFP-MAB21L1 after 12 hrs of 1 μg/ml tetracycline; three biological replicates; MaxQuant

Row | binding | Binder
1 | binds | B1
2 | binds | B2
3 | binds | B3
4 | binds | B4
5 | binds | B5

biological target: T2, GFP-tagged MAB21L1 Arg51Gln (human); test: as above

Row | binding | Binder
6 | binds | B1
7 | binds | B2
8 | binds | B3
9 | binds | B4
10 | binds | B5

biological target: T3, GFP-tagged MAB21L1 Arg51Leu (human); test: as above

Row | binding | Binder
11 | binds | B1
12 | binds | B2
13 | binds | B3
14 | binds | B4
15 | binds | B5

Where a chain is given by its changes, count along the chain named. These are yes or no findings as the source states them, for the method shown. In cells and extracts the contact can be indirect. These calls come from enrichment with a bait or labelling near it, and not all partners need be listed. Where a sequence is shown, tags or fusion partners need not be part of it.
